Measured values reported in US20190144863.

Amino acid sequences for entries named in this document (tags omitted). A change or cut given only in a name is not applied to a line headed by its entry.
UniProt Q921E6: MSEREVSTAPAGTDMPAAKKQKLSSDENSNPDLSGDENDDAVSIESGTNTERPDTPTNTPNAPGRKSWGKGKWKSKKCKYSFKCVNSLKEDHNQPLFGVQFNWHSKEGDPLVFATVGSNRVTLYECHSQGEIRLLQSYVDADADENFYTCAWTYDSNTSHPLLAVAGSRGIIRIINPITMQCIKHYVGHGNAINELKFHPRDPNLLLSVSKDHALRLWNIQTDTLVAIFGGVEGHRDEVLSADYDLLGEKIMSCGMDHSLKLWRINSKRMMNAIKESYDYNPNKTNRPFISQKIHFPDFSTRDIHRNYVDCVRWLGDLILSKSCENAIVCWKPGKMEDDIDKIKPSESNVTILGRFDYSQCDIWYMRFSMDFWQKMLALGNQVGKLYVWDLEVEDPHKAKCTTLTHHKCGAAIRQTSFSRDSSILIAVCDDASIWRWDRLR

Experiments:
EED = EED (UniProt Q921E6); experiment: enzyme reaction in vitro; conditions: mild enhancement of B2 cleavage kobs; fragmentation event said not observed in FIG. 2C; purified recombinant protein; label: radiolabelled in filter binding (cpm)
PRC2 complex = experiment: enzyme reaction in vitro; conditions: 25 nM PRC2 with 200 nM B2 RNA gives fragmentation; 0.5 mM MgCl2; purified recombinant protein; label: radiolabelled in filter binding (cpm)

GGGGCUGGUGAGAUGGCUCAGUGGGUAAGAGCACCCGACUGCUCUUCCGAAGGUCCGGAGUUCAAAUCCCAGCAACCACAUGGUGGCUCACAACCAUCCGUAACGAGAUCUGACUCCCUCUUCUGGAGUGUCUGAAGACAGCUACAGUGUACUUACAUAUAAUAAAUAAAUAAAUCUUUAAAAAAAAA [B2 RNA full length]
functional effect (EED): 0.008 min⁻¹ | functional effect (PRC2 complex): active

For some assays here: The exact form of at least one protein or probe is not confirmed.
